This is an account of results in the supplement of paper PMC4604168 (melanoma cell lines).

The other results are listed elsewhere or left out. Many values rest on one well or one pass, so single values are uncertain.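 The apoptosis fraction was the count of cleaved-PARP antibody-stained nuclei relative to all DNA-stained nuclei, imaged in 1,536-well plates. Screening doses were set so most cells survived, and baseline and induced cleaved-PARP levels vary greatly across cell lines.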

In this assay the test system is WM1745. Put plainly: cleaved PARP positive nuclei fraction relative to DMSO control; melanoma cells; higher = more apoptosis. Conditions: library dose: low library concentration; 72 h.
Consider `O=C(O)[C@@H]1[O][Sb](=[O])([O][Sb]2(=[O])[O][C@H]([C@H](O)CO)[C@H](O)[C@H](C(=O)O)[O]2)[O][C@H]([C@H](O)CO)[C@@H]1O` (stereo not given in full) [stibogluconate] + CN(NC(=O)CC(=O)NN(C)C(=S)c1ccccc1)C(=S)c1ccccc1 [STA4783] (first compound 2 µM, partner dose 0.006 µM), for which the “cleaved PARP positive nuclei fraction” value turned out to be 98.6%.
For the compound `CCCS(=O)(=O)Nc1ccc(F)c(C(=O)c2c[nH]c3ncc(Cl)cc23)c1F` + COc1ccc(COc2ccc(Cc3cnc(N)nc3N)cc2OC)cc1 [GW2580] (first compound 0.08 µM, partner dose 1 µM), the “cleaved PARP positive nuclei fraction” value was found to be 98.7%.
Regarding `Nc1ncn([C@H]2C[C@H](O)[C@@H](CO)O2)c(=O)n1` [decitabine] + CCc1ccc(CCOc2ccc(CC3SC(=O)NC3=O)cc2)nc1 [pioglitazone] (first compound 0.1 µM, partner dose 2 µM), the “cleaved PARP positive nuclei fraction” value was determined as 126%.
The same measure for `CN1CCN(c2ccc3nc(-c4c(N)c5c(F)cccc5[nH]c4=O)[nH]c3c2)CC1` [Dovitinib] + CN(NC(=O)CC(=O)NN(C)C(=S)c1ccccc1)C(=S)c1ccccc1 [STA4783] (first compound 0.1 µM, partner dose 0.006 µM): 154%; for `Nc1ccn([C@@H]2O[C@H](CO)[C@@H](O)C2(F)F)c(=O)n1` [gemcitabine] + O=c1cc(-c2cccc3c2Sc2ccccc2S3)oc(N2CCOCC2)c1 [KU55933] (first compound 0.0004 µM, partner dose 1 µM): 221%.
